Results reported in article PMC11263707.
These are yes or no findings as the source states them, for the method shown. In cells and extracts the contact can be indirect. Some binding calls cover weakened binding; strength is not graded here. Where a sequence is shown, tags or fusion partners need not be part of it.

Chains of the proteins cited; added tags and fusions are not shown.
UniProt P06748: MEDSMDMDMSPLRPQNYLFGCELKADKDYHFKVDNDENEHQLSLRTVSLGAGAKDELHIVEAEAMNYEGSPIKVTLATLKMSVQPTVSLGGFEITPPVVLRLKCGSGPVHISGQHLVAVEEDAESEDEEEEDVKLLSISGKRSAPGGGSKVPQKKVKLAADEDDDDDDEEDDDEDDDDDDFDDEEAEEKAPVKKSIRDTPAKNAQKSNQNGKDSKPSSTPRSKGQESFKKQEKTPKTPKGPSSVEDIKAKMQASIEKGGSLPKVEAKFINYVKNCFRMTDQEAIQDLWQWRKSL

Molecular target: Myc-NPM1 (human) (UniProt P06748)
Test: co-IP; Flag-ALDH9A1 and Myc-NPM1 forced expressed in A498 and CAKI-1 cells; Flag immunoprecipitation and Myc immunoprecipitation; western blot

binding: binds
B1: Flag-ALDH9A1 (enzyme, UniProt P49189-3 1-518)
chain: MFLRAGLAALSPLLRSLRPSPVAAMSTGTFVVSQPLNYRGGARVEPADASGTEKAFEPATGRVIATFTCSGEKEVNLAVQNAKAAFKIWSQKSGMERCRILLEAARIIREREDEIATMECINNGKSIFEARLDIDISWQCLEYYAGLAASMAGEHIQLPGGSFGYTRREPLGVCVGIGAWNYPFQIASWKSAPALACGNAMVFKPSPFTPVSALLLAEIYSEAGVPPGLFNVVQGGAATGQFLCQHPDVAKVSFTGSVPTGMKIMEMSAKGIKPVTLELGGKSPLIIFSDCDMNNAVKGALMANFLTQGQVCCNGTRVFVQKEILDKFTEEVVKQTQRIKIGDPLLEDTRMGPLINRPHLERVLGFVKVAKEQGAKVLCGGDIYVPEDPKLKDGYYMRPCVLTNCRDDMTCVKEEIFGPVMSILSFDTEAEVLERANDTTFGLAAGVFTRDIQRAHRVVAELQAGTCFINNYNVSPVELPFGGYKKSGFGRENGRVTIEYYSQLKTVCVEMGDVESAF
